# From the supplement of paper PMC8728848
# This is one part of the list.
# B1: Flo10 (Saccharomyces cerevisiae), P36170 (protein)
# chain: MPVAARYIFLTGLFLLSVANVALGTTEACLPAGEKKNGMTINFYQYSLKDSSTYSNPSYMAYGYADAEKLGSVSGQTKLSIDYSIPCNGASDTCACSDDDATEYSASQVVPVKRGVKLCSDNTTLSSKTEKRENDDCDQGAAYWSSDLFGFYTTPTNVTVEMTGYFLPPKTGTYTFGFATVDDSAILSVGGNVAFECCKQEQPPITSTDFTINGIKPWNADAPTDIKGSTYMYAGYYYPIKIVYSNAVSWGTLPVSVVLPDGTEVNDDFEGYVFSFDDNATQAHCSVPNPAEHARTCVSSATSSWSSSEVCTECTETESTSYVTPYVTSSSWSSSEVCTECTETESTSTSTPYVTSSSSSSSEVCTECTETESTSYVTPYVSSSTAAANYTSSFSSSSEVCTECTETESTSTSTPYVTSSSWSSSEVCTECTETESTSYVTPYVSSSTAAANYTSSFSSSSEVCTECTETESTSTSTPYVTSSSSSSSEVCTECTETESTSYVTPYVSSSTAAANYTSSFSSSSEVCTECTETESTSTSTPYVTSSSWSSSEVCTECTETESTSYVTPYVSSSTAAANYTSSFSSSSEVCTECTETESTSTSTPYATSSTGTATSFTASTSNTMTSLVQTDTTVSFSLSSTVSEHTNAPTSSVESNASTFISSNKGSVKSYVTSSIHSITPMYPSNQTVTSSSVVSTPITSESSESSASVTILPSTITSEFKPSTMKTKVVSISSSPTNLITSYDTTSKDSTVGSSTSSVSLISSISLPSSYSASSEQIFHSSIVSSNGQALTSFSSTKVSSSESSESHRTSPTTSSESGIKSSGVEIESTSTSSFSFHETSTASTSVQISSQFVTPSSPISTVAPRSTGLNSQTESTNSSKETMSSENSASVMPSSSATSPKTGKVTSDETSSGFSRDRTTVYRMTSETPSTNEQTTLITVSSCESNSCSNTVSSAVVSTATTTINGITTEYTTWCPLSATELTTVSKLESEEKTTLITVTSCESGVCSETASPAIVSTATATVNDVVTVYSTWSPQATNKLAVSSDIENSASKASFVSEAAETKSISRNNNFVPTSGTTSIETHTTTTSNASENSDNVSASEAVSSKSVTNPVLISVSQQPRGTPASSMIGSSTASLEMSSYLGIANHLLTNSGISIFIASLLLAIV
# What was measured:
# Assay in all cases: glycan array binding signal (z-score within array); higher = stronger binding
# Conditions in all cases: glycan notation: IUPAC condensed, linker removed
# [1] = target: Fuc(a1-2)[Gal(a1-3)]Gal
# Procedure, shortened: (§1)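 Negative Z-scores can be read as non-binding. The Z-score is calculated within each array and then averaged across arrays of one protein sequence at different concentrations or buffers and across linkers. Arrays, 3228 in all, were curated from the Consortium for Functional Glycomics database and kept only where the protein sequence was available.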
# [2] = target: Fuc(a1-2)[Gal(a1-3)]Gal(b1-3)GlcNAc
# Procedure, shortened: as §1
# [3] = target: Fuc(a1-2)[Gal(a1-3)]Gal(b1-3)GlcNAc(b1-2)Man(a1-3)[Fuc(a1-2)[Gal(a1-3)]Gal(b1-3)GlcNAc(b1-2)Man(a1-6)]Man(b1-4)GlcNAc(b1-4)GlcNAc
# Procedure, shortened: as §1
# [4] = target: Fuc(a1-2)[Gal(a1-3)]Gal(b1-4)Glc
# Procedure, shortened: as §1
# [5] = target: Fuc(a1-2)[Gal(a1-3)]Gal(b1-4)GlcNAc
# Procedure, shortened: as §1
# [6] = target: Fuc(a1-2)[Gal(a1-3)]Gal(b1-4)GlcNAc(b1-2)Man(a1-3)[Fuc(a1-2)[Gal(a1-3)]Gal(b1-4)GlcNAc(b1-2)Man(a1-6)]Man(b1-4)GlcNAc(b1-4)GlcNAc
# Procedure, shortened: as §1
# [7] = target: Fuc(a1-2)[Gal(a1-3)]Gal(b1-4)[Fuc(a1-3)]GlcNAc
# Procedure, shortened: as §1
# [8] = target: Fuc(a1-2)[Gal(a1-4)]Gal(b1-4)GlcNAc
# Procedure, shortened: as §1
# [9] = target: Fuc(a1-2)[GalNAc(a1-3)]Gal
# Procedure, shortened: as §1
# [10] = target: Fuc(a1-2)[GalNAc(a1-3)]Gal(b1-3)GalNAc(a1-3)[Fuc(a1-2)]Gal(b1-4)GlcNAc
# Procedure, shortened: as §1
# [11] = target: Fuc(a1-2)[GalNAc(a1-3)]Gal(b1-3)GlcNAc
# Procedure, shortened: as §1
# [12] = target: Fuc(a1-2)[GalNAc(a1-3)]Gal(b1-3)GlcNAc(b1-2)Man(a1-3)[Fuc(a1-2)[GalNAc(a1-3)]Gal(b1-3)GlcNAc(b1-2)Man(a1-6)]Man(b1-4)GlcNAc(b1-4)GlcNAc
# Procedure, shortened: as §1
# [13] = target: Fuc(a1-2)[GalNAc(a1-3)]Gal(b1-4)Glc
# Procedure, shortened: as §1
# [14] = target: Fuc(a1-2)[GalNAc(a1-3)]Gal(b1-4)GlcNAc
# Procedure, shortened: as §1
# [15] = target: Fuc(a1-2)[GalNAc(a1-3)]Gal(b1-4)GlcNAc(b1-2)Man(a1-3)[Fuc(a1-2)[GalNAc(a1-3)]Gal(b1-4)GlcNAc(b1-2)Man(a1-6)]Man(b1-4)GlcNAc(b1-4)GlcNAc
# Procedure, shortened: as §1
# [16] = target: Fuc(a1-2)[GalNAc(a1-3)]Gal(b1-4)GlcNAc(b1-3)Gal(b1-4)GlcNAc
# Procedure, shortened: as §1
# [17] = target: Fuc(a1-2)[GalNAc(a1-3)]Gal(b1-4)GlcNAc(b1-3)Gal(b1-4)GlcNAc(b1-3)Gal(b1-4)GlcNAc
# Procedure, shortened: as §1
# [18] = target: Fuc(a1-2)[GalNAc(a1-3)]Gal(b1-4)[Fuc(a1-3)]GlcNAc
# Procedure, shortened: as §1
# [19] = target: Fuc(a1-2)[GalNAc(a1-4)]Gal(b1-4)GlcNAc
# Procedure, shortened: as §1
# [20] = target: Fuc(a1-2)[GalNAc(b1-3)]Gal
# Procedure, shortened: as §1
# [21] = target: Fuc(a1-3)GlcNAc
# Procedure, shortened: as §1
# [22] = target: Fuc(a1-3)[Gal(b1-4)]Glc6S
# Procedure, shortened: as §1
# [23] = target: Fuc(a1-3)[Gal(b1-4)]GlcNAc
# Procedure, shortened: as §1
# [24] = target: Fuc(a1-3)[Gal(b1-4)]GlcNAc(b1-2)Man(a1-3)[Fuc(a1-3)[Gal(b1-4)]GlcNAc(b1-2)Man(a1-6)]Man(b1-4)GlcNAc(b1-4)GlcNAc
# Procedure, shortened: as §1
# [25] = target: Fuc(a1-3)[Gal(b1-4)]GlcNAc(b1-3)Gal(b1-3)[Fuc(a1-4)]GlcNAc
# Procedure, shortened: as §1
# [26] = target: Fuc(a1-3)[Gal(b1-4)]GlcNAc(b1-3)GalNAc
# Procedure, shortened: as §1
# [27] = target: Fuc(a1-3)[Gal(b1-4)]GlcNAc(b1-4)Gal(b1-4)[Fuc(a1-3)]GlcNAc
# Procedure, shortened: as §1
# [28] = target: Fuc(a1-3)[Gal(b1-4)]GlcNAc(b1-4)Gal(b1-4)[Fuc(a1-3)]GlcNAc(b1-4)Gal(b1-4)[Fuc(a1-3)]GlcNAc
# Procedure, shortened: as §1
# [29] = target: Fuc(a1-3)[Gal(b1-4)]GlcNAc(b1-6)[Gal(b1-3)GlcNAc(b1-3)]Gal(b1-4)Glc
# Procedure, shortened: as §1
# [30] = target: Fuc(a1-3)[Gal(b1-4)]GlcNAc6S
# Procedure, shortened: as §1
# [31] = target: Fuc(a1-3)[Gal3S(b1-4)]GlcNAc
# Procedure, shortened: as §1
# [32] = target: Fuc(a1-3)[Gal3S(b1-4)]GlcNAc6S
# Procedure, shortened: as §1
# [33] = target: Fuc(a1-3)[GalNAc(b1-4)]GlcNAc
# Procedure, shortened: as §1
# [34] = target: Fuc(a1-4)GlcNAc
# Procedure, shortened: as §1
# [35] = target: Fuc(b1-3)GlcNAc
# Procedure, shortened: as §1
# [36] = target: Gal(a1-2)Gal
# Procedure, shortened: as §1
# [37] = target: Gal(a1-3)Gal
# Procedure, shortened: as §1
# [38] = target: Gal(a1-3)Gal(b1-3)GlcNAc
# Procedure, shortened: as §1
# [39] = target: Gal(a1-3)Gal(b1-3)GlcNAc(b1-2)Man(a1-3)[Gal(a1-3)Gal(b1-3)GlcNAc(b1-2)Man(a1-6)]Man(b1-4)GlcNAc(b1-4)GlcNAc
# Procedure, shortened: as §1
# [40] = target: Gal(a1-3)Gal(b1-3)[Fuc(a1-4)]GlcNAc(b1-2)Man(a1-3)[Gal(a1-3)Gal(b1-3)[Fuc(a1-4)]GlcNAc(b1-2)Man(a1-6)]Man(b1-4)GlcNAc(b1-4)GlcNAc
# Procedure, shortened: as §1
# [41] = target: Gal(a1-3)Gal(b1-4)Glc
# Procedure, shortened: as §1
# [42] = target: Gal(a1-3)Gal(b1-4)GlcNAc
# Procedure, shortened: as §1
# [43] = target: Gal(a1-3)Gal(b1-4)GlcNAc(b1-3)GalNAc
# Procedure, shortened: as §1
# [44] = target: Gal(a1-3)Gal(b1-4)[Fuc(a1-3)]GlcNAc
# Procedure, shortened: as §1
# [45] = target: Gal(a1-3)Gal(b1-4)[Fuc(a1-3)]GlcNAc(b1-2)Man(a1-3)[Gal(a1-3)Gal(b1-4)[Fuc(a1-3)]GlcNAc(b1-2)Man(a1-6)]Man(b1-4)GlcNAc(b1-4)GlcNAc
# Procedure, shortened: as §1
binder,measurement,setting,value
B1,glycan array binding signal (z-score),[1],-0.579
same,glycan array binding signal (z-score),[2],-0.233
same,glycan array binding signal (z-score),[3],-0.584
same,glycan array binding signal (z-score),[4],-0.49
same,glycan array binding signal (z-score),[5],-0.515
same,glycan array binding signal (z-score),[6],0.105
same,glycan array binding signal (z-score),[7],1.68
same,glycan array binding signal (z-score),[8],0.109
same,glycan array binding signal (z-score),[9],1.09
same,glycan array binding signal (z-score),[10],1.12
same,glycan array binding signal (z-score),[11],-0.144
same,glycan array binding signal (z-score),[12],-0.763
same,glycan array binding signal (z-score),[13],-0.594
same,glycan array binding signal (z-score),[14],0.515
same,glycan array binding signal (z-score),[15],3.27
same,glycan array binding signal (z-score),[16],4.78
same,glycan array binding signal (z-score),[17],5.34
same,glycan array binding signal (z-score),[18],-0.6
same,glycan array binding signal (z-score),[19],-0.76
same,glycan array binding signal (z-score),[20],-0.704
same,glycan array binding signal (z-score),[21],-0.833
same,glycan array binding signal (z-score),[22],0.096
same,glycan array binding signal (z-score),[23],0.685
same,glycan array binding signal (z-score),[24],0.178
same,glycan array binding signal (z-score),[25],-0.763
same,glycan array binding signal (z-score),[26],-0.536
same,glycan array binding signal (z-score),[27],-0.637
same,glycan array binding signal (z-score),[28],-0.607
same,glycan array binding signal (z-score),[29],0.141
same,glycan array binding signal (z-score),[30],0.388
same,glycan array binding signal (z-score),[31],-0.406
same,glycan array binding signal (z-score),[32],0.429
same,glycan array binding signal (z-score),[33],0.073
same,glycan array binding signal (z-score),[34],-0.586
same,glycan array binding signal (z-score),[35],-0.561
same,glycan array binding signal (z-score),[36],3.67
same,glycan array binding signal (z-score),[37],-0.002
same,glycan array binding signal (z-score),[38],-0.114
same,glycan array binding signal (z-score),[39],0.626
same,glycan array binding signal (z-score),[40],-0.055
same,glycan array binding signal (z-score),[41],0.341
same,glycan array binding signal (z-score),[42],-0.627
same,glycan array binding signal (z-score),[43],-0.351
same,glycan array binding signal (z-score),[44],-0.169
same,glycan array binding signal (z-score),[45],-0.784

# Nothing new here: an excerpt of the list.
binder,measurement,setting,value
B1,glycan array binding signal (z-score),[22],0.096
same,glycan array binding signal (z-score),[23],0.685
same,glycan array binding signal (z-score),[24],0.178
same,glycan array binding signal (z-score),[25],-0.763
same,glycan array binding signal (z-score),[26],-0.536
same,glycan array binding signal (z-score),[27],-0.637
same,glycan array binding signal (z-score),[28],-0.607
same,glycan array binding signal (z-score),[29],0.141
same,glycan array binding signal (z-score),[30],0.388
same,glycan array binding signal (z-score),[31],-0.406
same,glycan array binding signal (z-score),[32],0.429
same,glycan array binding signal (z-score),[33],0.073
